Results deposited as PubChem BioAssay AID1259254 (NCATS, 2017).
Here is an unselected part of about 59,000 deposited reagents. About 1,550 of them (2.6%) were called active. 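G2 share is only a proxy for re-replication; each gene was hit by three separate siRNAs, and active genes were retested.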 The numbers tell different reagents against one gene apart. Not all columns of the deposit are shown. The record does not give: the amount of reagent.

Test: 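Gene knock-downs that lead to re-replication, shown by excess G2 DNA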 (primary screen)
Cells: human HCT116 colorectal cancer cells
Knock-down reagent: single siRNA against human genes
Timing: 3 days
Read-out: 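Imaged Hoechst DNA stain sorts each cell into a cycle phase by DNA amount; per plate, G2 fraction set to 0% for non-targeting and 100% for GMNN siRNA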
Reading the numbers: G2 robust z-score and G2 cells, % of GMNN control: higher = more G2 cells, more excess DNA replication
Call rule: 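An siRNA counts as active if its G2 robust z-score lies at least 5 MADs above the screen median; here such calls match roughly 38% of GMNN control or more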

G2 robust z-score | G2 cells, % of GMNN control | call | gene | reagent no.
-0.262 | 1.12 | inactive | RAMP1 (GeneID 10267) | 1
-0.52 | -0.693 | inactive | RAMP1 (GeneID 10267) | 2
0.409 | 5.85 | inactive | RAMP1 (GeneID 10267) | 3
0.233 | 4.61 | inactive | ARHGAP11B (GeneID 89839) | 1
-0.567 | -1.02 | inactive | ARHGAP11B (GeneID 89839) | 2
-0.521 | -0.696 | inactive | ARHGAP11B (GeneID 89839) | 3
-1.2 | -5.47 | inactive | PTGDS (GeneID 5730) | 1
0.932 | 9.52 | inactive | PTGDS (GeneID 5730) | 2
1.97 | 16.8 | inactive | PTGDS (GeneID 5730) | 3
-0.243 | 1.26 | inactive | CALD1 (GeneID 800) | 1
0.0453 | 3.29 | inactive | CALD1 (GeneID 800) | 2
0.278 | 4.92 | inactive | CALD1 (GeneID 800) | 3
0.000755 | 2.97 | inactive | DVL1 (GeneID 1855) | 1
0.907 | 9.35 | inactive | DVL1 (GeneID 1855) | 2
-0.938 | -3.63 | inactive | DVL1 (GeneID 1855) | 3
-0.6 | -1.25 | inactive | WDR62 (GeneID 284403) | 1
-0.114 | 2.16 | inactive | WDR62 (GeneID 284403) | 2
-0.524 | -0.722 | inactive | WDR62 (GeneID 284403) | 3
-0.0805 | 2.4 | inactive | PGM5P4 (GeneID 729468) | 1
-0.743 | -2.26 | inactive | PGM5P4 (GeneID 729468) | 2
-0.484 | -0.438 | inactive | PGM5P4 (GeneID 729468) | 3
0.178 | 4.22 | inactive | C10orf88 (GeneID 80007) | 1
2.1 | 17.7 | inactive | C10orf88 (GeneID 80007) | 2
3.79 | 29.6 | inactive | C10orf88 (GeneID 80007) | 3
-0.548 | -0.891 | inactive | SLC38A7 (GeneID 55238) | 1
0.549 | 6.83 | inactive | SLC38A7 (GeneID 55238) | 2
-0.29 | 0.925 | inactive | SLC38A7 (GeneID 55238) | 3
-0.507 | -0.603 | inactive | ZNF460 (GeneID 10794) | 1
-0.0947 | 2.3 | inactive | ZNF460 (GeneID 10794) | 2
-0.0777 | 2.42 | inactive | ZNF460 (GeneID 10794) | 3
3.23 | 25.7 | inactive | CYP26A1 (GeneID 1592) | 1
0.57 | 6.98 | inactive | CYP26A1 (GeneID 1592) | 2
0.0951 | 3.64 | inactive | CYP26A1 (GeneID 1592) | 3
-0.437 | -0.111 | inactive | OR1E2 (GeneID 8388) | 1
2.84 | 22.9 | inactive | OR1E2 (GeneID 8388) | 2
-0.165 | 1.8 | inactive | OR1E2 (GeneID 8388) | 3
2.39 | 19.8 | inactive | CASP9 (GeneID 842) | 1
1.57 | 14 | inactive | CASP9 (GeneID 842) | 2
-0.317 | 0.74 | inactive | CASP9 (GeneID 842) | 3
0.0154 | 3.08 | inactive | CHI3L2 (GeneID 1117) | 1
0.0955 | 3.64 | inactive | CHI3L2 (GeneID 1117) | 2
1.58 | 14.1 | inactive | CHI3L2 (GeneID 1117) | 3
-0.51 | -0.622 | inactive | SNX13 (GeneID 23161) | 1
0.954 | 9.68 | inactive | SNX13 (GeneID 23161) | 2
-0.406 | 0.114 | inactive | SNX13 (GeneID 23161) | 3
0.525 | 6.66 | inactive | POTEA (GeneID 340441) | 1
0.0975 | 3.65 | inactive | POTEA (GeneID 340441) | 2
-0.851 | -3.02 | inactive | POTEA (GeneID 340441) | 3
-1.12 | -4.95 | inactive | RBMY1F (GeneID 159163) | 1
1.4 | 12.8 | inactive | RBMY1F (GeneID 159163) | 2
-0.727 | -2.15 | inactive | RBMY1F (GeneID 159163) | 3
0.638 | 7.46 | inactive | MTG2 (GeneID 26164) | 1
2.61 | 21.4 | inactive | MTG2 (GeneID 26164) | 2
4.34 | 33.5 | inactive | MTG2 (GeneID 26164) | 3
-0.963 | -3.81 | inactive | CEP78 (GeneID 84131) | 1
-0.227 | 1.37 | inactive | CEP78 (GeneID 84131) | 2
-0.315 | 0.751 | inactive | CEP78 (GeneID 84131) | 3
-0.942 | -3.66 | inactive | RPL32P16 (GeneID 646104) | 1
-0.743 | -2.26 | inactive | RPL32P16 (GeneID 646104) | 2
3.29 | 26.1 | inactive | RPL32P16 (GeneID 646104) | 3
-0.462 | -0.28 | inactive | DACH2 (GeneID 117154) | 1
-0.101 | 2.26 | inactive | DACH2 (GeneID 117154) | 2
1.18 | 11.2 | inactive | DACH2 (GeneID 117154) | 3
4.89 | 37.4 | inactive | BCAS3 (GeneID 54828) | 1
-0.196 | 1.59 | inactive | BCAS3 (GeneID 54828) | 2
-0.645 | -1.57 | inactive | BCAS3 (GeneID 54828) | 3
-0.313 | 0.767 | inactive | PLAAT3 (GeneID 11145) | 1
1 | 10 | inactive | PLAAT3 (GeneID 11145) | 2
-1.06 | -4.5 | inactive | PLAAT3 (GeneID 11145) | 3
2.35 | 19.5 | inactive | PARVB (GeneID 29780) | 1
0.508 | 6.54 | inactive | PARVB (GeneID 29780) | 2
-0.222 | 1.41 | inactive | PARVB (GeneID 29780) | 3
-0.566 | -1.01 | inactive | MAGIX (GeneID 79917) | 1
-0.632 | -1.48 | inactive | MAGIX (GeneID 79917) | 2
-0.749 | -2.3 | inactive | MAGIX (GeneID 79917) | 3
1.89 | 16.3 | inactive | SUMO2 (GeneID 6613) | 1
1.28 | 12 | inactive | SUMO2 (GeneID 6613) | 2
1.72 | 15.1 | inactive | SUMO2 (GeneID 6613) | 3
-0.789 | -2.58 | inactive | SPO11 (GeneID 23626) | 1
4.46 | 34.3 | inactive | SPO11 (GeneID 23626) | 2
-0.897 | -3.34 | inactive | SPO11 (GeneID 23626) | 3
1.05 | 10.3 | inactive | ATG7 (GeneID 10533) | 1
2.11 | 17.8 | inactive | ATG7 (GeneID 10533) | 2
1.43 | 13 | inactive | ATG7 (GeneID 10533) | 3
0.175 | 4.2 | inactive | ULBP3 (GeneID 79465) | 1
-0.109 | 2.2 | inactive | ULBP3 (GeneID 79465) | 2
-0.356 | 0.466 | inactive | ULBP3 (GeneID 79465) | 3
